Results are given in words; binding and its absence hold for the method and conditions named. In cells and extracts the contact can be indirect. These calls come from enrichment with a bait or labelling near it, and not all partners need be listed.

Chains of the proteins cited; added tags and fusions are not shown.
UniProt Q9UM07: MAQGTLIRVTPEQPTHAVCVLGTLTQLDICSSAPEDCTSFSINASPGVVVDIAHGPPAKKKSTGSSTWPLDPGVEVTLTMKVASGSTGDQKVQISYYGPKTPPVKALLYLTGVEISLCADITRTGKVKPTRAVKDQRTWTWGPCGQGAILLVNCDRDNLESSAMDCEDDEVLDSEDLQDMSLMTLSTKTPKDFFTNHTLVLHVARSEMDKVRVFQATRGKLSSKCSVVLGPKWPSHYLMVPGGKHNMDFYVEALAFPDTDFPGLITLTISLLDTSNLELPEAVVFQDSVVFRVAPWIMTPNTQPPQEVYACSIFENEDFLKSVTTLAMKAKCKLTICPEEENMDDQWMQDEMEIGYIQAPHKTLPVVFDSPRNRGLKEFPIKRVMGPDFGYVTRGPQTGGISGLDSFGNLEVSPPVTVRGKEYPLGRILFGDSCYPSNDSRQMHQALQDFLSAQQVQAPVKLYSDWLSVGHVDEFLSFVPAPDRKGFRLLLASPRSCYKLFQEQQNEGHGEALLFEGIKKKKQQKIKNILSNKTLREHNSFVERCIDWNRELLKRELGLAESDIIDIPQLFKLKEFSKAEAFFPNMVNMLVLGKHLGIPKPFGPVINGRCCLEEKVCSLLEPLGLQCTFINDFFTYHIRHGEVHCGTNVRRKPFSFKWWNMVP
UniProt P04264: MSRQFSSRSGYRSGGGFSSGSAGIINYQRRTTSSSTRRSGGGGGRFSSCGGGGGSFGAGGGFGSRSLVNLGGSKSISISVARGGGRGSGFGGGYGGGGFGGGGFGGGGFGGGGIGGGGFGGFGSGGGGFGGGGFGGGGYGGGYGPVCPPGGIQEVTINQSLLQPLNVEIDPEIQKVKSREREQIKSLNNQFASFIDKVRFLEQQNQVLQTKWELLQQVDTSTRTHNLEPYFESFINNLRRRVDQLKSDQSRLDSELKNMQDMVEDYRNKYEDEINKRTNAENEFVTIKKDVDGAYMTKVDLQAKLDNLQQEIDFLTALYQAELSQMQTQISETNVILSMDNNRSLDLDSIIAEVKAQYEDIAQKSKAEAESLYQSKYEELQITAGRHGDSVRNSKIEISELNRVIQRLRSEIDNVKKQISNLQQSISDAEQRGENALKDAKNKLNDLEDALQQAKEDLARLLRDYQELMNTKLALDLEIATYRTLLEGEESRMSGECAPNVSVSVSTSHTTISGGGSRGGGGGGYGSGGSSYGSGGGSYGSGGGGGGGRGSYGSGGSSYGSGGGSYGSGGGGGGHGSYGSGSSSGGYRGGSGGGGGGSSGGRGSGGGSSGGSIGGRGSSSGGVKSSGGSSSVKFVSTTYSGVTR

The target in the assay is protein arginine deiminase type 4 (PAD4) (human (endogenous in GES-1)) (UniProt Q9UM07). Briefly: affinity purification with mass spectrometry; pull-down with a PAD4-specific antibody from GES-1 cells with or without H. pylori infection for 6 hours; LC-MS/MS.

As for “Keratin 1 (K1) (from UniProt P04264 1-644)”, the binding entry is recorded as “binds”.

For the origin of these results see publication PMC11671999.
